Experimental data: PubChem BioAssay AID504774 (Drosophila RNAi Screening Center, 2011)

Purpose: 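Knock-downs that shift viability of MMS-exposed cells relative to untreated ones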 (primary screen)
System: Drosophila Kc167 cells
Knock-down reagent: long dsRNA against Drosophila genes, about 0.25 µg dsRNA per well
Time to read-out: about 6 days: 3 days knock-down, then 3 days with or without MMS
Treatment: methyl methanesulphonate 0.004% (w/v) for 3 days after knock-down
Detection: 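Viability in wells given MMS, read as ATP luminescence, normalised by quantiles plate by plate and averaged across replicates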
Direction: mean viability with MMS and viability with MMS: higher = more surviving cells after MMS
The screen tested about 23,000 reagents; shown is a random part of those that have a named target and a result. 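Values are quantile-normalised luminescence on an arbitrary scale; higher means more cells surviving MMS.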 Names joined by + are all predicted targets of the reagent. No sequences are given here.

| Target gene | dsRNA | mean viability with MMS | viability with MMS, replicate 1 | viability with MMS, replicate 2 |
| --- | --- | --- | --- | --- |
| CG33337 | DRSC13632 | 3.63e6 | 4.05e6 | 4.16e6 |
| Ugt317A1 (UDP-glycosyltransferase family 317 member A1) | DRSC04470 | 3.60e6 | 4.14e6 | 4.03e6 |
| Cbs (Cystathionine beta-synthase) | DRSC20553 | 3.53e6 | 4.05e6 | 3.97e6 |
| Kr (Kruppel) | DRSC04622 | 3.29e6 | 3.61e6 | 3.71e6 |
| CG13075 | DRSC09958 | 3.67e6 | 4.11e6 | 4.16e6 |
| CG13856 | DRSC14706 | 3.44e6 | 3.92e6 | 3.90e6 |
| CG13031 | DRSC09911 | 3.46e6 | 3.84e6 | 3.98e6 |
| CG10470 | DRSC02061 | 3.51e6 | 3.99e6 | 3.97e6 |
| zen (zerknullt) | DRSC12632 | 3.65e6 | 4.21e6 | 4.06e6 |
| CG2924 | DRSC18525 | 3.63e6 | 4.08e6 | 4.14e6 |
| CG14258 | DRSC14753 | 3.71e6 | 4.25e6 | 4.11e6 |
| CG32318 + Klp61F + Psf1 | DRSC23255 | 2.80e6 | 2.96e6 | 3.19e6 |
| Cerk (Ceramide kinase) | DRSC12285 | 3.54e6 | 4.00e6 | 4.04e6 |
| CG3527 | DRSC18307 | 3.44e6 | 3.93e6 | 3.87e6 |
| Pfdn6 (Prefoldin 6) | DRSC10915 | 3.45e6 | 3.86e6 | 3.93e6 |
| CG6765 | DRSC10706 | 3.46e6 | 3.88e6 | 3.98e6 |
| CG15577 | DRSC18065 | 3.70e6 | 4.29e6 | 4.10e6 |
| Mical (Molecule interacting with CasL) | DRSC14349 | 3.39e6 | 3.89e6 | 3.84e6 |
| Mical (Molecule interacting with CasL) | DRSC14351 | 3.46e6 | 3.89e6 | 3.97e6 |
| Mical (Molecule interacting with CasL) | DRSC15365 | 3.43e6 | 3.95e6 | 3.87e6 |
| Mical (Molecule interacting with CasL) | DRSC15366 | 3.49e6 | 4.01e6 | 3.93e6 |
| CG4210 | DRSC15551 | 3.70e6 | 4.32e6 | 4.09e6 |
| Ufd4 (Ubiquitin fusion-degradation 4-like) | DRSC02871 | 3.59e6 | 4.15e6 | 3.99e6 |
| CG14441 | DRSC17934 | 3.02e6 | 3.55e6 | 3.46e6 |
| CG13658 | DRSC14659 | 3.53e6 | 4.01e6 | 3.98e6 |
| CG9784 | DRSC20210 | 3.53e6 | 3.96e6 | 4.05e6 |
| CG9313 | DRSC04540 | 3.69e6 | 4.11e6 | 4.30e6 |
| slp1 (sloppy paired 1) | DRSC00835 | 3.81e6 | 4.23e6 | 4.43e6 |
| CG15564 | DRSC15102 | 3.40e6 | 3.84e6 | 3.81e6 |
| Vha16-2 (Vacuolar H[+] ATPase 16kD subunit 2) | DRSC10873 | 3.60e6 | 3.96e6 | 4.17e6 |
| l(1)sc (lethal of scute) | DRSC18789 | 3.54e6 | 3.88e6 | 4.14e6 |
| Arms (Ankyrin repeat-rich membrane spanning) | DRSC03856 | 3.54e6 | 4.05e6 | 3.97e6 |
| Arms (Ankyrin repeat-rich membrane spanning) | DRSC03857 | 3.51e6 | 4.08e6 | 3.88e6 |
| Arms (Ankyrin repeat-rich membrane spanning) | DRSC04052 | 3.68e6 | 4.12e6 | 4.24e6 |
| Arms (Ankyrin repeat-rich membrane spanning) | DRSC04256 | 3.35e6 | 3.74e6 | 3.79e6 |
| Poc1 (Proteome of centrioles 1) | DRSC09713 | 3.45e6 | 3.95e6 | 3.87e6 |
| Mal-A4 (Maltase A4) | DRSC07236 | 3.58e6 | 3.98e6 | 4.11e6 |
| atk (artichoke) | DRSC11418 | 3.40e6 | 3.85e6 | 3.93e6 |
| atk (artichoke) | DRSC11769 | 3.47e6 | 3.96e6 | 3.88e6 |
| E(spl)mdelta-HLH (Enhancer of split mdelta, helix-loop-helix) | DRSC16698 | 3.46e6 | 3.91e6 | 3.90e6 |
| CG2887 | DRSC18235 | 3.38e6 | 3.90e6 | 3.81e6 |

Laid out differently: 4 of the entries above.
CG14441 [DRSC17934] → mean viability with MMS = 3.02e6; viability with MMS, replicate 1 = 3.55e6; viability with MMS, replicate 2 = 3.46e6
CG13658 [DRSC14659] → mean viability with MMS = 3.53e6; viability with MMS, replicate 1 = 4.01e6; viability with MMS, replicate 2 = 3.98e6
CG9784 [DRSC20210] → mean viability with MMS = 3.53e6; viability with MMS, replicate 1 = 3.96e6; viability with MMS, replicate 2 = 4.05e6
CG9313 [DRSC04540] → mean viability with MMS = 3.69e6; viability with MMS, replicate 1 = 4.11e6; viability with MMS, replicate 2 = 4.30e6

More results follow:
| Target gene | dsRNA | mean viability with MMS | viability with MMS, replicate 1 | viability with MMS, replicate 2 |
| --- | --- | --- | --- | --- |
| CG13946 | DRSC00364 | 3.56e6 | 4.03e6 | 4.04e6 |
| CG15258 | DRSC02478 | 3.57e6 | 4.08e6 | 4.03e6 |
| Ino80 (INO80 complex subunit) | DRSC14760 | 3.75e6 | 4.10e6 | 4.41e6 |
| Ino80 (INO80 complex subunit) | DRSC15333 | 3.72e6 | 4.28e6 | 4.15e6 |
| Ino80 (INO80 complex subunit) | DRSC15501 | 3.76e6 | 3.95e6 | 4.57e6 |
| CG11807 | DRSC06087 | 3.61e6 | 4.20e6 | 4.00e6 |
| yip7 (yippee interacting protein 7) | DRSC11410 | 3.51e6 | 4.04e6 | 3.94e6 |
| Hmt4-20 (Histone methyltransferase 4-20) | DRSC18482 | 3.17e6 | 3.75e6 | 3.73e6 |
| CG7992 | DRSC20070 | 3.61e6 | 4.20e6 | 3.95e6 |
| Kots (Kotsubu) | DRSC16581 | 3.72e6 | 4.21e6 | 4.24e6 |
| Lsd-1 (Lipid storage droplet-1) | DRSC14236 | 3.43e6 | 4.00e6 | 3.79e6 |
| Nup107 (Nucleoporin 107kD) | DRSC01999 | 3.03e6 | 3.56e6 | 3.61e6 |
| svp (seven up) | DRSC12899 | 3.59e6 | 4.15e6 | 3.98e6 |
| svp (seven up) | DRSC15311 | 2.56e6 | 3.60e6 | 3.61e6 |
| svp (seven up) | DRSC17075 | 3.72e6 | 4.10e6 | 4.07e6 |
| Slc45-1 | DRSC10427 | 3.42e6 | 3.94e6 | 3.79e6 |
| Saysd1 (SAYSVFN motif domain containing 1) | DRSC14664 | 3.71e6 | 4.21e6 | 4.18e6 |
| CG3609 | DRSC00620 | 3.52e6 | 4.05e6 | 3.93e6 |
| CG15725 | DRSC19691 | 3.50e6 | 3.97e6 | 3.94e6 |
| CG13022 | DRSC09902 | 3.59e6 | 4.03e6 | 4.10e6 |
| CG15412 | DRSC00427 | 3.48e6 | 3.85e6 | 4.05e6 |
| ex (expanded) | DRSC00817 | 3.54e6 | 3.97e6 | 4.05e6 |
| CG14391 | DRSC14850 | 3.47e6 | 3.95e6 | 3.96e6 |
| CG4880 | DRSC19923 | 3.68e6 | 4.21e6 | 4.18e6 |
| CG9815 | DRSC04567 | 3.67e6 | 4.15e6 | 4.17e6 |
| CG17211 | DRSC02587 | 3.71e6 | 4.14e6 | 4.20e6 |
| pkm (Pinkman) | DRSC19674 | 3.64e6 | 3.98e6 | 4.17e6 |
| dUTPase (Deoxyuridine triphosphatase) | DRSC01998 | 3.72e6 | 4.30e6 | 4.18e6 |
| CG3288 | DRSC11745 | 3.68e6 | 4.14e6 | 4.14e6 |
| CG33271 | DRSC10583 | 3.45e6 | 3.81e6 | 4.00e6 |
| RpL3 (Ribosomal protein L3) | DRSC16834 | 2.98e6 | 3.73e6 | 3.67e6 |
| PPO2 (Prophenoloxidase 2) | DRSC07102 | 3.51e6 | 4.03e6 | 3.91e6 |
| CG4960 | DRSC15684 | 3.60e6 | 4.03e6 | 4.14e6 |
| CG7294 | DRSC03041 | 3.52e6 | 4.07e6 | 3.93e6 |
| Camta (Calmodulin-binding transcription activator) | DRSC06440 | 3.45e6 | 3.95e6 | 3.90e6 |
| Camta (Calmodulin-binding transcription activator) | DRSC06441 | 3.53e6 | 3.48e6 | 3.48e6 |
| Camta (Calmodulin-binding transcription activator) | DRSC07272 | 3.64e6 | 4.24e6 | 4.03e6 |
| Camta (Calmodulin-binding transcription activator) | DRSC23081 | 3.66e6 | 4.24e6 | 4.07e6 |
| Camta (Calmodulin-binding transcription activator) | DRSC23156 | 3.42e6 | 3.77e6 | 4.02e6 |
| RpS29 + snoRNA:Psi18S-1275 | DRSC16433 | 2.94e6 | 3.69e6 | 3.65e6 |
| Ance-3 | DRSC02648 | 3.76e6 | 4.28e6 | 4.12e6 |
| Ance-3 | DRSC02649 | 3.52e6 | 3.96e6 | 4.02e6 |
| Idh3a (Isocitrate dehydrogenase 3a) | DRSC19446 | 3.55e6 | 4.00e6 | 4.05e6 |
| Fmo-1 (Flavin-containing monooxygenase 1) | DRSC04328 | 3.42e6 | 4.19e6 | 3.79e6 |
| CG34166 | DRSC02482 | 1.92e6 | 4.10e6 | 4.06e6 |
| Lztr1 (Leucine zipper like transcription regulator 1) | DRSC18176 | 3.62e6 | 3.90e6 | 4.32e6 |
| Lztr1 (Leucine zipper like transcription regulator 1) | DRSC18647 | 3.54e6 | 3.97e6 | 4.07e6 |
